# The list shows a part of the results. Further columns of the screen follow, without active or inactive calls. Most of these compounds were active or inconclusive in the main read-out, so they are no random draw. Potencies come from curve fits of mixed quality, noted in brackets.
# Experiment: IkB Signaling
# Details: ABC-DLBCL IkBa-CBG/CBR dual luciferase ratio (green luciferase fused to IkBa over red control in OCI-Ly3 lymphoma cells), 4 h
# Method in brief: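 Luminescence ratio of IκBα-fused green versus native red beetle luciferase in OCI-Ly3 cells, 4 h post-doxycycline with compound; red signal alone, scaled from basal (0%) to zero light (-100%), flagged nonspecific or cytotoxic effects.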
# [1] = measured here: control luc red channel unless noted
# [2] = measured here: IkB-luc green channel
# [3] = measured here: control luc red channel
smiles,measurement,setting,value
COc1cccc(-c2cc(C(=O)Nc3cc(OC)c(OC)c(OC)c3)no2)c1,AC50,[1],"6.31 µM [falling, partial curve]"
O=C(Cn1cc(C(=O)c2ccncc2)c(=O)c2cc(F)ccc21)Nc1ccc(Cl)cc1,AC50,[1],"6.31 µM [falling, partial curve]"
O=C1c2[nH]nc(-c3ccccc3O)c2C(c2cccc(O)c2)N1Cc1ccncc1 (stereo not drawn),AC50,[1],"31.6 µM [falling, partial curve]"
CC1=C(C#N)c2nc(N)c(C#N)c(C)c2/C1=C\c1ccccc1,AC50,[2],"3.98 µM [rising, single point]"
same,AC50,[3],"15.8 µM [falling, partial curve]"
Cc1ccc2c(c1)N(S(=O)(=O)c1cc(-c3onc(C)c3C)ccc1C)CCO2,AC50,[1],"31.6 µM [falling, single point]"
COc1ccccc1CNC(=O)CCn1c(=O)c2ccccc2n(CC(=O)Nc2ccc(Br)cc2F)c1=O,AC50,[2],"25.1 µM [rising, single point]"
same,AC50,[3],"3.98 µM [falling, partial curve]"
Cc1ccc(O)c(NC(=O)c2noc3c2CCCC3)c1,AC50,[1],"25.1 µM [falling, single point]"
CCOC(=O)N1CCN(C(=O)CN(c2cccc(Cl)c2)S(=O)(=O)c2ccccc2)CC1,AC50,[1],"3.98 µM [falling, partial curve]"
CCCN(C(=O)c1cc2c(=O)oc3ccccc3c2s1)c1cccc(Cl)c1,AC50,[1],"5.01 µM [falling, full curve, poor fit]"
CC[C@@H](C)[C@H]1O[C@]2(CC[C@@H]1C)C[C@@H]1C[C@H](C/C=C(/C)[C@H](O[C@@H]3C[C@H](OC)[C@H](O[C@@H]4C[C@H](OC)[C@@H](O)[C@H](C)O4)[C@H](C)O3)[C@@H](C)/C=C\C=C3CO[C@@H]4[C@H](O)C(C)=C[C@@H](C(=O)O1)[C@]34O)O2 (tested in a mixture with another compound),AC50,[1],"10 µM [falling, full curve, poor fit]"
COc1cccc(CNC(=O)c2cc(S(=O)(=O)N3CCCCCC3)cn2C)c1,AC50,[1],"5.01 µM [falling, partial curve]"
CCc1cccc(NS(=O)(=O)c2ccc3c(c2)n(C)c(=O)c(=O)n3C)c1,AC50,[1],"10 µM [falling, partial curve]"
CCC1CN(C(=O)Nc2cc(C)ccc2OC)c2cc(Cl)ccc2O1 (stereo not drawn),AC50,[1],"31.6 µM [falling, single point]"
COC(=O)c1ccc(NC(=O)CC2Nc3cc(C)c(C)cc3NC2=O)cc1 (stereo not drawn),AC50,[1],"25.1 µM [falling, single point]"
COc1ccccc1NCc1cccn1-c1nnc(N2CCCCCC2)s1,AC50,[1],"25.1 µM [falling, partial curve]"
Cc1cc(C)n(-c2nc3ccccc3nc2Nc2ccc(Cl)c(Cl)c2)n1,AC50,[1],"25.1 µM [falling, single point]"
CCOc1ccc(S(=O)(=O)Nc2ccc3oc(C)c(C(=O)OC(C)C)c3c2)cc1,AC50,[1],"39.8 µM [falling, partial curve, poor fit]"
COc1cccc(-c2nnc(SCC(=O)N3CCCc4ccccc43)o2)c1,AC50,[1],"15.8 µM [falling, partial curve]"
Cc1cccc(OCC(=O)Nc2c(C(=O)N3CCN(c4ccccc4F)CC3)oc3ccccc23)c1,AC50,[1],"12.6 µM [falling, partial curve]"
Cc1ccc2c(c1)-c1onc(C(=O)N3CCN(c4ccc(Cl)cc4)CC3)c1CO2,AC50,[1],"1.26 µM [falling, partial curve]"
CCOc1ccc(Cl)cc1/C=N/O,AC50,[1],"3.16 µM [rising, full curve]"
CNC(=O)c1c(NC(=O)c2nc3ccccc3s2)sc2c1CCC2,AC50,[2],"12.6 µM [rising, partial curve]"
same,AC50,[3],"0.00631 µM [falling, full curve]"
Cn1c(=O)n(C)c2cc(C(=O)Nc3ccc4c(c3)OCO4)ccc21,AC50,[1],"10 µM [rising, partial curve] [measured here: IkB-luc green channel]"
Brc1ccc(-c2nc3ccccn3c2Nc2ccc3c(c2)OCCO3)o1,AC50,[1],"12.6 µM [falling, partial curve]"
CSC1=NC2(CCN(C(=O)NC3CCCCC3)CC2)N=C1c1ccc(C)cc1,AC50,[1],"15.8 µM [falling, partial curve]"
O=C(C1COc2ccccc2O1)N1CCN(c2nc3ccc(F)cc3s2)CC1 (stereo not drawn),AC50,[1],"25.1 µM [falling, partial curve]"
O=C(c1cccs1)N(C(=O)c1cccs1)c1ccccn1,AC50,[1],"31.6 µM [falling, single point]"
Cn1c(=O)c2c(nc(SCC(=O)Nc3ccccc3)n2Cc2ccccc2F)n(C)c1=O,AC50,[1],"3.98 µM [falling, full curve]"
CCN(CC)S(=O)(=O)c1nnc(NC(=O)COc2ccccc2F)s1,AC50,[1],"39.8 µM [falling, single point]"
Fc1ccc(CNc2ncnc3onc(-c4ccc(F)cc4)c23)cc1,AC50,[1],"1 µM [falling, single point]"
CCc1cccc(C)c1Nc1c(-c2ccccc2)nc2sccn12,AC50,[1],"25.1 µM [falling, single point]"
O=C(C1COc2ccccc2O1)N(Cc1cccnc1)c1nc2ccc(Cl)cc2s1 (stereo not drawn),AC50,[1],"39.8 µM [falling, single point]"
N#Cc1nc(Cc2cccc3ccccc23)oc1NCCN1CCCCC1,AC50,[1],"0.398 µM [falling, full curve]"
COc1ccc(OC)c(CNC(=O)c2c3c(nc4ccccc24)C(=O)N(C2CCCCC2)C3)c1,AC50,[1],"10 µM [falling, single point]"
O=C(Nc1ccc(O)cc1C(=O)O)c1cccc(Br)c1,AC50,[1],"0.0316 µM [falling, full curve]"
CCOC(=O)c1c(C)[nH]c(C)c1S(=O)(=O)N1CCC(C(=O)N2CCN(c3cccc(Cl)c3)CC2)CC1,AC50,[1],"31.6 µM [falling, single point]"
CCOC(=O)c1c(S(=O)(=O)N2CCC(C(=O)NCc3ccc(F)cc3)CC2)c(C)n(C)c1C,AC50,[1],"3.16 µM [rising, partial curve, poor fit]"
Cc1cccc(N(C)C(=O)CCS(=O)(=O)c2ccc3c(c2)oc(=O)n3C)c1,AC50,[1],"31.6 µM [falling, partial curve]"
COc1ccc(OCC(=O)NC2CC(=O)N(c3cccc(OC)c3)C2)cc1 (stereo not drawn),AC50,[2],"3.98 µM [rising, single point]"
same,AC50,[3],"6.31 µM [rising, partial curve]"
CCCN(CCC)CC(O)Cn1cc(/C=C/C(=O)c2ccc(C)cc2)c2ccccc21 (stereo not drawn),AC50,[1],"25.1 µM [falling, single point]"
COc1ccc(NC(=O)CN2CCN(Cc3ccc(F)cc3)S2(=O)=O)cc1Cl,AC50,[1],"39.8 µM [falling, single point]"
COc1ccc(NC(=O)c2cc(S(=O)(=O)N3CCCCCC3)cn2C)c(OC)c1,AC50,[1],"1.58 µM [falling, full curve, poor fit]"
Cc1ccccc1C(=O)NC1(C(F)(F)F)N=C(c2ccccc2)N(C2CCCCC2)C1=O (stereo not drawn),AC50,[1],"39.8 µM [falling, single point]"
CCC(Oc1ccccc1F)C(=O)N1CCC(c2nc3ccccc3s2)CC1 (stereo not drawn),AC50,[1],"25.1 µM [falling, partial curve]"
O=C(NC(=O)c1ccccc1)Nc1ccc(-c2cc(C(F)(F)F)nn2-c2ccccc2)cc1,AC50,[1],"0.126 µM [rising, full curve]"
Cc1ccc(C(CC(=O)c2ccco2)SCCO)cc1 (stereo not drawn),AC50,[1],"39.8 µM [falling, single point]"
COc1ccc(Cl)cc1NC(=O)C1CCCN(c2ncnc3onc(C)c23)C1 (stereo not drawn),AC50,[1],"31.6 µM [falling, partial curve]"
COc1ccccc1CCNC(=O)C1CCN(c2nnc(-n3cccc3CNc3ccc(C)cc3)s2)CC1,AC50,[1],"12.6 µM [falling, partial curve]"
COc1ccc(N2CCN(c3csc4ccc(Cl)cc4c3=O)CC2)cc1,AC50,[1],"31.6 µM [falling, partial curve, poor fit]"
COc1ccc(S(=O)(=O)Nc2ccccc2C(=O)NCc2ccco2)cc1Br,AC50,[1],"12.6 µM [falling, partial curve]"
O=C(O)c1ccc2nc(-c3cc4cccc(O)c4oc3=O)[nH]c2c1,AC50,[1],"0.126 µM [falling, full curve]"
CCc1ccccc1Nc1nn2c(=O)c3ccc(C(=O)NCc4ccccc4OC)cc3nc2s1,AC50,[1],"10 µM [falling, partial curve]"
CCOC(=O)c1c(C)[nH]c(C)c1S(=O)(=O)N1CCCC(C(=O)Nc2ccc(C)cn2)C1 (stereo not drawn),AC50,[1],"20 µM [falling, partial curve, poor fit]"
COc1ccccc1Cn1cc(C(=O)c2ccc(C)cc2)c(=O)c2cc(C)ccc21,AC50,[1],"31.6 µM [falling, partial curve]"
Clc1ccc2c(c1)NC(c1ccncc1)=NC(c1cccs1)=N2,AC50,[1],"12.6 µM [falling, partial curve]"
COc1ccc2c(c1)CCc1c(C(=O)Nc3c(C)nn(Cc4ccccc4C)c3C)noc1-2,AC50,[1],"7.94 µM [falling, partial curve]"
COc1cc(CNC(=O)c2ccc3nc(CCc4ccccc4)oc3c2)cc(OC)c1OC,AC50,[1],"39.8 µM [falling, single point]"
CCN(CC)S(=O)(=O)c1cccc(C(=O)Nc2ccc(C#N)cc2)c1,AC50,[1],"7.94 µM [falling, partial curve]"
CNS(=O)(=O)c1cn(CC(=O)N2CCN(c3cccc(C)c3C)CC2)cc1S(=O)(=O)NC,AC50,[1],"20 µM [falling, partial curve]"

# As a working copy, some entries already given.
smiles,measurement,setting,value
CSC1=NC2(CCN(C(=O)NC3CCCCC3)CC2)N=C1c1ccc(C)cc1,AC50,[1],"15.8 µM [falling, partial curve]"
O=C(C1COc2ccccc2O1)N1CCN(c2nc3ccc(F)cc3s2)CC1 (stereo not drawn),AC50,[1],"25.1 µM [falling, partial curve]"

# Exported with tabs: part of the list above
smiles	measurement	setting	value
CNC(=O)c1c(NC(=O)c2nc3ccccc3s2)sc2c1CCC2	AC50	[2]	12.6 µM [rising, partial curve]
Cc1cccc(N(C)C(=O)CCS(=O)(=O)c2ccc3c(c2)oc(=O)n3C)c1	AC50	[1]	31.6 µM [falling, partial curve]

# Reference: PubChem BioAssay AID445 (National Center for Advancing Translational Sciences (NCATS), 2006)
